Most values lie at the floor of the assay. Slopes are relative: functional sequences can read slightly below zero.
System: Saccharomyces cerevisiae PS128 hsf1 delta, HSF1(1-493) fusion
Assay: growth estimate (transactivation domain function in HSF1 fusion, heat-shock survival) (a.u. (slope of normalised read count over time)); higher = stronger growth at 37°C, i.e. more transactivation activity
Settings: library: random library

Row | Substance | growth estimate
1 | ATSSKARQGALKVRL | < -0.25
2 | HADCKDTSRHHRRQLHGGIL | < -0.25
3 | HELRYCCGRAGLYEYF | -0.245
4 | DRGKALNSAGPIQAAALNV | < -0.25
5 | MSNWFDR | < -0.25
6 | SFYLVGLRGRFQ | < -0.25
7 | VGGRACTWSIIPA | < -0.25
8 | SVSREYRRAPSLICVWI | < -0.25
9 | AESQRPLQRSECLS | < -0.25
10 | PCCGMSG | < -0.25
11 | LEKIQPRANWTLAL | < -0.25
12 | TWSCFLLLCGLGDVSMTTHP | < -0.25
13 | RYRNGERFRRAPPGCSFPGR | < -0.25
14 | DGIVWGRWFRTEPIEPLQQA | < -0.25
15 | QQPWQSEHTSRGINNLIHRP | < -0.25
16 | GRGHNPV | < -0.25
17 | SVYRVGGNFVA | < -0.25
18 | ILFGYGSRAT | < -0.25
19 | MDLR | < -0.25
20 | RRQETG | < -0.25
21 | ITVSTASRYNPADKGARRLV | < -0.25
22 | RSKIDSEGYVTFLLSQGPWN | < -0.25
23 | FPGEEDVLEPGATDACCQTR | < -0.25

Taken from the entries so far for reference:
Row | Substance | growth estimate
10 | PCCGMSG | < -0.25
11 | LEKIQPRANWTLAL | < -0.25
12 | TWSCFLLLCGLGDVSMTTHP | < -0.25

Two entries from above, as tab-separated lines.
Row	Substance	growth estimate
4	DRGKALNSAGPIQAAALNV	< -0.25
5	MSNWFDR	< -0.25

(further entries)

Row | Substance | growth estimate
24 | GTHMTLLPRVGDHIRTVSSG | < -0.25
25 | SIENGSGHNSYDRLIVPRRT | < -0.25
26 | MELGIF | < -0.25
27 | GEGKLID | < -0.25
28 | QYFCLVFKGGLT | < -0.25
29 | VALGWVRIPTGFRARLDMVK | < -0.25
30 | SELFKDLPPELRTV | < -0.25
31 | IYNNQVPTGTDVFQIPEQGS | < -0.25
32 | ASAGAVRAYLRSEHRGGSIH | < -0.25
33 | MSCTAGERKGY | < -0.25
34 | GGGASLE | < -0.25
35 | ELGGGAIWV | < -0.25
36 | ARGQHGVQYGLYSLLTPPPA | < -0.25
37 | GRWIYMFKQLVDFHNGP | < -0.25
38 | VLEQNFLRLDWH | < -0.25
39 | VVACCRPFRKIR | < -0.25
40 | RSWAGSVRSLKIK | < -0.25
41 | RGWSNP | < -0.25
42 | SLSSFRRHIMSECGREPVTL | < -0.25
43 | HFLFGP | < -0.25
44 | ARHERG | -0.243
45 | PLLCLCDV | < -0.25
46 | YVSGRVILSENLESGSSIDG | < -0.25

Row | Substance | growth estimate
47 | APQFFIHLQWWPVYLWFGNL | < -0.25
48 | SCWGTT | < -0.25
49 | SSCLVRGAQVKISERLKDTG | < -0.25
50 | QALGAL | < -0.25
51 | PMA | < -0.25
52 | LEYPLGRVYSHLDICAYWR | < -0.25
53 | MCVEADVGYVRRVLSLPRTR | < -0.25
54 | GRHATPTNETWFYKLLVFWC | < -0.25
55 | PETSLRRISEDTVIAAIGPS | < -0.25
56 | SQMVLDQVLRQGDPLQDSLC | < -0.25
57 | LFIISTT | < -0.25
58 | LILDTSG | < -0.25
59 | LCRIGTNGRVVPHRGTVSGL | < -0.25
60 | CWKGTCIGKDIVHGIGRTGS | < -0.25
61 | CSCYQICVGLLVEVELRTYG | < -0.25
62 | ILPKSLGSLTNFPDMARRSC | < -0.25
63 | EERQICGPKRRTNAGRKDHA | < -0.25
64 | VQKVQIVRLSEN | < -0.25
65 | TGAGGGRRFILASMLCEFLC | < -0.25
66 | GVGQEPTRINPSVLCCLENY | < -0.25
67 | ELQLVYMHSRA | < -0.25
68 | MIIGQK | < -0.25
69 | EGITSSLSA | -0.248

Row | Substance | growth estimate
70 | VMVAAPLRYRAAPQSYAAFS | < -0.25
71 | ARTTSVRGLYPTASSAVTIT | < -0.25
72 | GRSLRKG | < -0.25
73 | PECTNVSPWVPRLPSELSVG | < -0.25
74 | SNHKRSLPQ | < -0.25
75 | AEICGRIMRDLQYGPQRRS | < -0.25
76 | SSQHA | < -0.25
77 | SWGG | < -0.25
78 | AHVEAGAFVVGASKICYLAP | < -0.25
79 | AGQL | < -0.25
80 | GDCVGPS | < -0.25
81 | FVRGRTLHC | < -0.25
82 | VQAHRPDR | < -0.25
83 | EGGAIHHETVLYSSIGADVP | < -0.25
84 | FVVQLSLDDA | < -0.25
85 | GPHILLYVVNNG | < -0.25
86 | FSLLLMGPQSSARADRDVEA | < -0.25
87 | PVCMMAMSAVGGDHTDPFTI | < -0.25
88 | YCKI | < -0.25
89 | RKSRVRREESRGSIGHTCQW | < -0.25
90 | IMSQ | < -0.25
91 | RPLGTGIPTTYYHPGRY | < -0.25
92 | GLLSRFCLRATVPTRSWRWA | < -0.25

Row | Substance | growth estimate
93 | YQVHIPTQLRYRTVGQRLIC | < -0.25
94 | RKGRYCLRGTAFSGSLKWHG | < -0.25
95 | MEMTMAVQQRRIHDRPLFGK | -0.244
96 | FLGTNIRVLVAHHLTHPRNR | < -0.25
97 | KIYPATGHKGHLASRVIKRC | < -0.25
98 | QFVPDPVKSTAGVRAKAICV | < -0.25
99 | SVGVSSSDKSHVYRHFSSAL | < -0.25
100 | NVSQIGCARATIAARPCSKL | < -0.25
101 | DQVTQHG | -0.246
102 | VDGSLV | < -0.25
103 | SRRPYRGPHARAGNDMKRR | < -0.25
104 | ALGVNPERSHHRLDSRASLR | < -0.25
105 | AAVHAERVDIAGES | < -0.25
106 | QMISRSGPELVGRYRYRYVL | < -0.25
107 | NDVSKEARGALCGQKGLGIS | < -0.25
108 | GQGTVLIYVDVLGCSCVALL | < -0.25
109 | HTAAAQ | < -0.25
110 | LTLHVRPLSRIRSTSSADSP | < -0.25
111 | TITDLPVYAPHYSSINA | < -0.25
112 | YEGIC | < -0.25
113 | ASNGV | < -0.25
114 | MLVVSRWDASGPKGVVRTQG | < -0.25
115 | DCLGTLTVSQPLTLFL | < -0.25

Row | Substance | growth estimate
116 | LKDYSRPCLGSQQFLDFRLV | < -0.25
117 | YMNKVR | < -0.25
118 | RMGWMGPVYHVGVTSRGGCI | < -0.25
119 | ANRVRHTLVPVSR | < -0.25
120 | ILFCWALQVYQAWQHILITT | < -0.25
121 | VVAHLP | < -0.25
122 | VKAYGTARDQSHVPTA | < -0.25
123 | GYEPYGFRLCRAHGIHSTRD | < -0.25
124 | TPDWYSCYKDAGSFGLTSRR | < -0.25
125 | WVGIRAAH | < -0.25
126 | RICMLPIW | < -0.25
127 | RQPLHIIGGVRSPNEGYSRS | < -0.25
128 | ALCPLSENRSGGYLGLTSSP | < -0.25
129 | GYQVSSGLGSTLARGKEESR | < -0.25
130 | EPLY | < -0.25
131 | VRALLLYGMSV | < -0.25
132 | QSTAGIMSWQFSKLVLQLKR | < -0.25
133 | DPVHTG | < -0.25
134 | YCQWLA | < -0.25
135 | DRGGRYGRTSSSGACLEPPP | < -0.25
136 | GVEHTLDARRL | < -0.25
137 | VELFPYAAF | < -0.25
138 | DSYSL | < -0.25

Row | Substance | growth estimate
139 | RHCTASYKYQQSRPRFVGLP | < -0.25
140 | YRPKMWPAYT | < -0.25
141 | IYVLSGHAMAE | < -0.25
142 | AQSNRVMISVP | < -0.25
143 | EHVSA | < -0.25
144 | LDEKFIDPG | < -0.25
145 | QHDTSSREQEFRPFRFSGGR | < -0.25
146 | TLRASVCVATPET | < -0.25
147 | NPWSTREKGCQNFCQSLRRG | < -0.25
148 | PGRRVWWKPAPIGRRLETSI | < -0.25
149 | RTKTTLHTPGVRLERGPV | < -0.25
150 | LSTYIGNRSGSADLPLRANP | < -0.25
151 | VDGWRAWTLEAGWDWIGQDH | 1.37
152 | ILMHWAAGS | < -0.25
153 | YLVLVSVCLFSAWITGM | < -0.25
154 | SRYGWEAWE | 0.307
155 | LWGHPAGNVGEGEFAGVQR | < -0.25
156 | QGDSLR | < -0.25
157 | RLLGRPGSCPFLKP | < -0.25
158 | ESILIIGF | < -0.25
159 | TGQVRSLQAVQWI | < -0.25

Two entries from above, tab-delimited:
Row	Substance	growth estimate
26	MELGIF	< -0.25
27	GEGKLID	< -0.25
